Measured values from publication PMC8789055, “Structural and biochemical characterization of human Schlafen 5”.
Substitutions are numbered along the chain they refer to. Weaker means in comparison with the reference protein, sequence or condition of that experiment. Tags and fusion partners may be left off the protein sequences shown. For some of these results: For at least one entry, the source does not settle the construct or the ends of the probe.

What was measured:
[1] = biological target: T1, SLFN5 1-336 R271E (Homo sapiens) (UniProt Q08AF3); assay: fluorescence anisotropy; details: FA: 2x buffer 100 mM HEPES pH 8.0, 100 mM NaCl mixed 1:1 with 100 nM (final) FAM ligand, 30 min on ice, recombinant protein, residues 1-336, protein details: C-terminal His6
T1 sequence (looked up): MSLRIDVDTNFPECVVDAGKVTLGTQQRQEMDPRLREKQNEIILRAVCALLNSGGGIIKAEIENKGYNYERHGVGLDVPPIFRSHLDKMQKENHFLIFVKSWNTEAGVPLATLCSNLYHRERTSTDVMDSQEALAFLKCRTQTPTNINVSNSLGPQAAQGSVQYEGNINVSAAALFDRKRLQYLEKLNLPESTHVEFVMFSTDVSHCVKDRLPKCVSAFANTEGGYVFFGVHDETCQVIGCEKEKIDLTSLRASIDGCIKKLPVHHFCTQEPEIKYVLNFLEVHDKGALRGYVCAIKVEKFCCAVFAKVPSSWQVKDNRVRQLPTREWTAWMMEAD

[2] = biological target: T2, SLFN5 1-336 R326E (Homo sapiens) (UniProt Q08AF3); assay: fluorescence anisotropy; details: FA: 2x buffer 100 mM HEPES pH 8.0, 100 mM NaCl mixed 1:1 with 100 nM (final) FAM ligand, 30 min on ice, recombinant protein, residues 1-336, protein details: C-terminal His6
T2 sequence (looked up): T1 sequence (looked up) with E271R, R326E

[3] = biological target: T3, SLFN5 full length (Homo sapiens) (UniProt Q08AF3); assay: competition EMSA; details: with 196 bp DNA, 20 nM each, DNA preferred; EMSA: 25 mM HEPES pH 7.0, 60 mM NaCl, 5% glycerol, 2 mM MgCl2, 0.5 mM DTT, 40 nM substrate, 30 min on ice, gel at 4 C; recombinant protein; residues 1-891; protein details: N-terminal double FLAG, HRV 3C site; label: 5'-FAM
T3 sequence (looked up): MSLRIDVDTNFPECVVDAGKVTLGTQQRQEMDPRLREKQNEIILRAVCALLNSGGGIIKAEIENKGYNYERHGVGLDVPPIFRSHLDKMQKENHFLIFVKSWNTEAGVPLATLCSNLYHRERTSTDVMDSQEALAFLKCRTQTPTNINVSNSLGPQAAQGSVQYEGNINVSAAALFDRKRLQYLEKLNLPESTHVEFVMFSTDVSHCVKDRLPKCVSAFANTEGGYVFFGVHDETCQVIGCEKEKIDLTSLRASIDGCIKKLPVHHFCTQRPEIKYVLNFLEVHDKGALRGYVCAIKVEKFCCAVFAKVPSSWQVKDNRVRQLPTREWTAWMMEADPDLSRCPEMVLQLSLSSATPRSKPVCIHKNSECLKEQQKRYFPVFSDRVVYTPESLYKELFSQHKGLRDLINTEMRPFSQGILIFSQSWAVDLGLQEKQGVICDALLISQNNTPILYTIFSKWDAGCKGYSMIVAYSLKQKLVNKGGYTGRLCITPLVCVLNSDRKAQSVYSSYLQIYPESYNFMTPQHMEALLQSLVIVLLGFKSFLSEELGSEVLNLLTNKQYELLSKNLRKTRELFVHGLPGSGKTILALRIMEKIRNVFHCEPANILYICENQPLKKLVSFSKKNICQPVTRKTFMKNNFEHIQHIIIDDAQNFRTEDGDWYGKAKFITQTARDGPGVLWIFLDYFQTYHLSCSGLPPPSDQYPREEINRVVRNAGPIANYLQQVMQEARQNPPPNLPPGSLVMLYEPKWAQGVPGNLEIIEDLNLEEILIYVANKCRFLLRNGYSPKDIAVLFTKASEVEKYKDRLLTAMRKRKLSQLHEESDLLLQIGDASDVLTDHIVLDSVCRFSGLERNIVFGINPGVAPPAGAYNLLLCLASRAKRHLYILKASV

[4] = biological target: T4, SLFN5 1-336 (Schlafen core domain) (Homo sapiens) (UniProt Q08AF3); assay: fluorescence anisotropy; details: FA: 2x buffer 100 mM HEPES pH 8.0, 100 mM NaCl mixed 1:1 with 100 nM (final) FAM ligand, 30 min on ice; recombinant protein; residues 1-336; protein details: C-terminal His6; label: 5'-FAM; single-stranded DNA
T4 sequence (looked up): T1 sequence (looked up) with E271R

[5] = label: 5'-FAM, single-stranded DNA

“GUAGUCGUGGCCGAGUGGUUAAGGCGAUGGACUUGAAAUCCAUUGUGGUUUCCCCGCGCAGGUUCGAAUCCUGCCGACUACGCCA [tRNA(Ser)]”: binds more weakly ([1]; label: 5'-FAM); binds more weakly ([2]; label: 5'-FAM); binds more weakly [3].
TTTTT [5 dT]: binds more weakly [4].
TTTTTTTTTT [10 dT]: binds more weakly [4].
TTTTTTTTTTTTTTTTTTTT [20 dT]: binds more weakly [4].
“TTTTTTTTTTTTTTTTTTTTTTTTTTTTTTTTTTTTTTTTTTTTTTTTTGCTTTTTTTTT (double strand) [60 bp DNA (60bp_A/T_GC)]”: binds more weakly ([1]; label: 5'-FAM (fwd)); binds more weakly ([2]; label: 5'-FAM (fwd)).
“TTTTTTTTTTTTTTTTTTTTTTTTTTTTTTTTTTTTTTTTTTTTTTTTTTTTTTTTTTTT [60 dT]”: binds more weakly [1, 5]; binds more weakly [2, 5].
